# Laboratory results as given in PubChem BioAssay AID504444 (National Center for Advancing Translational Sciences (NCATS), 2011).
# Among all 360,000 compounds or so, about 7,500 (2.1%) were called active. Inconclusive means that the source gave no clear call. Such entries were picked first, then a sample of the others. The call rests on the fitted dose curve; in most records, active means well fitted inhibition curve with a large enough effect; inconclusive means small, poorly fitted or top-dose-only effect, or effect the other way; inactive means flat fitted curve, though single readings scatter. A potency beside an inconclusive call is a rough fit, not a confirmed value.
# Test: Nrf2 qHTS screen for inhibitors; further: nearly all actives have a fitted effect of over 60% in size
# Details: A549 ARE-Fluc reporter, luciferase luminescence, 18-24 h; series mostly up to 46 µM
# Outline: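 Two sequential reads on A549 ARE_Fluc cells exposed to compound for 18-24 h: a CellTiter-Fluor fluorescence read for viability, then a luciferase luminescence read for Nrf2/ARE activity.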
# Potency means the concentration at half of the fitted maximal effect.
row,SMILES,Potency
1,Cc1nn(C)c(C(=O)NC(=S)Nc2ccccc2Br)c1Cl,"inconclusive: 29.1 µM [activator, single point]"
2,CC(C)(C)n1nnnc1SCC(=O)Nc1nn(-c2ccccc2)nc1C(N)=O,"inconclusive: 4.11 µM [falling, full curve, poor fit]"
3,COc1ccc(NS(=O)(=O)c2cc(NC(=O)C3CCCO3)ccc2N2CCCCC2)cc1 (configuration not stated),"inconclusive: 23.1 µM [falling, partial curve, poor fit]"
4,O=C(Nc1ccccc1N1CCOCC1)c1ccc(OCc2cscn2)cc1,"inconclusive: 0.0046 µM [falling, partial curve, poor fit]"
5,COc1ccc(C2OC(=O)CC2C(=O)NCc2ccc(Cl)cc2)cc1OC (configuration not stated),"inconclusive: 20.6 µM [activator, partial curve]"
6,COC(=O)Cc1ccc2oc(-c3cccnc3)nc2c1,"inconclusive: 29.1 µM [activator, single point]"
7,Cc1ccc(S(=O)(=O)c2cn(Cc3ccccc3F)c3cc4c(cc3c2=O)OCO4)cc1,"inconclusive: 23.1 µM [activator, partial curve]"
8,O=C(NCCCN1CCN(c2ccccc2F)CC1)C1CCN(S(=O)(=O)c2cccs2)CC1,"inconclusive: 4.61 µM [falling, full curve]"
9,CCc1ccccc1NC(=O)CN1CCN(C(=O)CNC(=O)Cc2cccc3ccccc23)CC1,active: 14.6 µM
10,Cc1nn(Cc2ccccc2)c(C)c1NC(=O)CCCn1nc(C)c([N+](=O)[O-])c1C,inactive
11,CC(=O)OCC(=O)C1(O)CCC2C3CC(C)C4=CC(=O)CCC4(C)C3C(O)CC21C (configuration not stated),active: 0.082 µM
12,COc1ccc(C2C=C(C34CC5CC(CC(C5)C3)C4)NC(=S)N2)cc1 (configuration not stated),"inconclusive: 1.3 µM [falling, partial curve, poor fit]"
13,COC(=O)/C(=C\C(=O)c1ccccc1)Nc1cccc(C(F)(F)F)c1,"inconclusive: 18.4 µM [activator, partial curve]"
14,COc1ccccc1NC(=O)c1oc2ccccc2c1NC(=O)c1ccccc1C(F)(F)F,inactive
15,COCCn1c(SCCOc2ccccc2)nc2ccccc2c1=O,"inconclusive: 18.4 µM [falling, partial curve, poor fit]"
16,Cc1ccc2[nH]cc(C(=O)CCl)c2c1,"inconclusive: 32.6 µM [falling, single point]"
17,O=C(NC(=S)N1CCN(C/C=C/c2ccccc2)CC1)c1ccc(F)cc1,"inconclusive: 20.6 µM [falling, single point]"
18,CC(C)(C)c1csc(NC(=O)CSc2nc3ccccc3c(=O)[nH]2)n1,"inconclusive: 20.6 µM [falling, single point]"
19,CCN(Cc1ccccc1)C(=O)CCCOc1ccccc1,"inconclusive: 7.31 µM [activator, partial curve]"
20,O=C1OC(c2ccccc2)=N/C1=C\N1CCCCC1,"inconclusive: 4.61 µM [activator, partial curve]"
21,Cc1c(Cl)sn(-c2ccc(Cl)cc2)c1=O,active: 25.9 µM

# An excerpt from above in order of number of heavy atoms, high to low.
row,SMILES,Potency
8,O=C(NCCCN1CCN(c2ccccc2F)CC1)C1CCN(S(=O)(=O)c2cccs2)CC1,"inconclusive: 4.61 µM [falling, full curve]"
11,CC(=O)OCC(=O)C1(O)CCC2C3CC(C)C4=CC(=O)CCC4(C)C3C(O)CC21C (configuration not stated),active: 0.082 µM
18,CC(C)(C)c1csc(NC(=O)CSc2nc3ccccc3c(=O)[nH]2)n1,"inconclusive: 20.6 µM [falling, single point]"

# The list goes on:

row,SMILES,Potency
1,O=C(CCN1C(=O)/C(=C/c2ccccc2)SC1=S)Nc1cccnc1,inactive
2,CC1(C)Cc2ccccc2-c2nc3n(c(=O)c21)CCS3,"inconclusive: 8.2 µM [falling, partial curve, poor fit]"
3,Fc1ccc(CSc2nnc(-c3ccccn3)o2)cc1,"inconclusive: 4.11 µM [activator, full curve, poor fit]"
4,CO/N=C/c1ccc(Oc2ccc(C)cc2)nc1,"inconclusive: 18.4 µM [activator, single point]"
5,Cc1ccc(C2(C)NC(=O)N(CC(=O)Nc3cc(S(=O)(=O)N(C)C)ccc3C)C2=O)cc1 (configuration not stated),"inconclusive: 29.1 µM [activator, single point]"
6,COc1ccc(NC(=O)CN(C)C(=O)CNC(=O)c2sc3ccccc3c2Cl)cc1,"inconclusive: 5.8 µM [activator, full curve, poor fit]"
7,CCC1=NN(C(=O)c2ccccc2Br)C(O)(c2ccc(Br)cc2)C1 (configuration not stated),"inconclusive: 5.8 µM [falling, single point]"
8,CC1(c2ccccc2)CC(C)(C)N(C(=O)CSc2nnc(N)s2)c2ccccc21 (configuration not stated),"inconclusive: 29.1 µM [falling, single point]"
9,CC(=O)Nc1ccc(NC(=O)Cn2cnc3c(cnn3C(C)(C)C)c2=O)cc1,"inconclusive: 29.1 µM [activator, single point]"
10,CCOc1ccc(NC(=O)CN2CCN(C(=O)C3CCCO3)CC2)cc1 (configuration not stated),"inconclusive: 25.9 µM [activator, partial curve, poor fit]"
11,CCCCNS(=O)(=O)c1ccc(NC(=O)C(Sc2ccccc2)c2ccccc2)cc1 (configuration not stated),"inconclusive: 23.1 µM [falling, single point]"
12,C=C(C)Cn1c(CCNC(=O)C(C)C)nc2ccccc21,inactive
13,Cc1cccc(NC(=O)c2sc3nc4c(cc3c2N)CN(Cc2ccccc2)CC4)c1,inactive
14,N#Cc1ccc(C(=O)Nc2ccn(-c3ccccc3)n2)cc1,active: 23.1 µM
15,CC(C)NC(=S)NNc1ncnc2sc3c(c12)CC(C)(C)OC3,inactive
16,Cc1cc(C(=O)COC(=O)c2ccc(O)cc2)c(C)n1CC(F)(F)F,"inconclusive: 18.4 µM [activator, single point]"
17,CC12CCC(C(=O)Nc3ncc([N+](=O)[O-])s3)(OC1=O)C2(C)C (configuration not stated),inactive
18,O=C(CCNC(=O)c1ccc(Cl)cc1)NCCC1=CCCCC1,"inconclusive: 16.4 µM [activator, single point]"
19,COc1ccc(-c2cn3nc(N4CCC(C(=O)Nc5cccc(OC)c5)CC4)sc3n2)cc1,"inconclusive: 29.1 µM [activator, single point]"
20,CNc1ccc(C(O)(C(F)(F)F)C(F)(F)F)cc1C(O)(C(F)(F)F)C(F)(F)F,"inconclusive: 29.1 µM [falling, single point]"
21,COc1ccc(Cl)c2sc(NC(=O)C3=COCCO3)nc12,"inconclusive: 29.1 µM [falling, single point]"
